Test results taken from paper PMC3411835.
Results are given in words; binding and its absence hold for the method and conditions named. In cells and extracts the contact can be indirect. Some binding calls cover weakened binding; strength is not graded here. Where a sequence is shown, tags or fusion partners need not be part of it.

The chains behind the UniProt entries cited, without tags or fusion partners. Residues count along the entry.
UniProt P15812, residues 32-388: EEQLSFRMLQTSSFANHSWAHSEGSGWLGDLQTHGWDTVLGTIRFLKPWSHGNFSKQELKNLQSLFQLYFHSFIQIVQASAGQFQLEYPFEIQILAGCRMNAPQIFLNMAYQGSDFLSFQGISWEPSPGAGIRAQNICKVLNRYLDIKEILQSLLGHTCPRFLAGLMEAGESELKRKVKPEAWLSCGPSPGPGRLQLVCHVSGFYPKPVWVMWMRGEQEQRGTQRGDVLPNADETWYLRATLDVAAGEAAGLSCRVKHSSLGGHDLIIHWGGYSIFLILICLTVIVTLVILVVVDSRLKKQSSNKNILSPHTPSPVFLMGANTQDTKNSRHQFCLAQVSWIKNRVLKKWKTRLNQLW

Key:
[1] = biological target: T1, EYFP-LAPTM5 fusion protein (in M10 cells) (UniProt Q13571); assay: co-IP; as a2, but only the cells not treated with bafilomycin
T1 sequence: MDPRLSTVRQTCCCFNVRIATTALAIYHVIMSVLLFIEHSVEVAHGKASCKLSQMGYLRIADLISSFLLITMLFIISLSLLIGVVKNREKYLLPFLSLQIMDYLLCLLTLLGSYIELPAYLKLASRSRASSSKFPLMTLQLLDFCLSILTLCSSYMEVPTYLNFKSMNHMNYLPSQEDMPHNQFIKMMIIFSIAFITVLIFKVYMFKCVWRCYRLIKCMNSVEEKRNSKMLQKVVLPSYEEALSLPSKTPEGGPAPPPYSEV

[2] = biological target: T2, V5-tagged LAPTM5 (in M10 cells) (UniProt Q13571); assay: as above
T2 sequence: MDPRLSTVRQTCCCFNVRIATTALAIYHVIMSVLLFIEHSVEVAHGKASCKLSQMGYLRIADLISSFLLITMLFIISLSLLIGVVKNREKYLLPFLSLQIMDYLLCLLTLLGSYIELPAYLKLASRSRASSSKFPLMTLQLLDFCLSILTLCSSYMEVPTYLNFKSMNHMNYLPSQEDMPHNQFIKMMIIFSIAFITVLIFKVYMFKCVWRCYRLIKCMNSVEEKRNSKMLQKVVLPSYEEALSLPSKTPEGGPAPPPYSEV

[3] = biological target: T1, EYFP-LAPTM5 fusion protein (in M10 cells); assay: co-IP; cleared lysates of transfected M10 cells, treated or not for 5 h with bafilomycin; immunoprecipitation with anti-CD1e mAb 20.6 or anti-GFP/anti-V5 antibodies, protein A-Sepharose, western blot with anti-tag antibodies or anti-CD1e mAb VIIC7
[4] = biological target: T2, V5-tagged LAPTM5 (in M10 cells); assay: as above
[5] = biological target: CD1e (transgenic, expressed in M10 melanoma cells) (human) (UniProt P15812); assay: as above
[6] = biological target: CD1e-mCherry fusion protein (in M10 cells) (human) (UniProt P15812); assay: as above
[7] = biological target: CD1e (expressed in transfected HEK293 cells) (human) (UniProt P15812); assay: co-IP; transfected HEK293 cells treated with bafilomycin; data not shown
[8] = biological target: CD1e (transgenic, expressed in M10 melanoma cells) (human) (UniProt P15812); assay: co-IP; as a2, but only the cells not treated with bafilomycin
[9] = biological target: CD1e (transgenic, expressed in M10 melanoma cells) (human) (UniProt P15812); assay: co-IP; M10 cells labelled 45 min with 35S and chased 0-4 h in the presence of bafilomycin; 1% Triton X100 lysate; immunoprecipitation with mAb 20.6, Endo F, SDS-PAGE, autoradiography

Molecule: CD1e (transgenic, expressed in M10 melanoma cells) (from UniProt P15812 32-388)
- binding [1]: no binding (condition: cells not treated with bafilomycin)
- binding [2]: no binding (condition: cells not treated with bafilomycin)
- binding [3]: binds
- binding [4]: binds

B1: EYFP-LAPTM5 fusion protein (in M10 cells) (protein, UniProt Q13571 1-262)
chain: MDPRLSTVRQTCCCFNVRIATTALAIYHVIMSVLLFIEHSVEVAHGKASCKLSQMGYLRIADLISSFLLITMLFIISLSLLIGVVKNREKYLLPFLSLQIMDYLLCLLTLLGSYIELPAYLKLASRSRASSSKFPLMTLQLLDFCLSILTLCSSYMEVPTYLNFKSMNHMNYLPSQEDMPHNQFIKMMIIFSIAFITVLIFKVYMFKCVWRCYRLIKCMNSVEEKRNSKMLQKVVLPSYEEALSLPSKTPEGGPAPPPYSEV
- binding [5]: binds
- binding [6]: binds

B2: V5-tagged LAPTM5 (in transfected HEK293 cells) (protein, UniProt Q13571 1-262)
chain: MDPRLSTVRQTCCCFNVRIATTALAIYHVIMSVLLFIEHSVEVAHGKASCKLSQMGYLRIADLISSFLLITMLFIISLSLLIGVVKNREKYLLPFLSLQIMDYLLCLLTLLGSYIELPAYLKLASRSRASSSKFPLMTLQLLDFCLSILTLCSSYMEVPTYLNFKSMNHMNYLPSQEDMPHNQFIKMMIIFSIAFITVLIFKVYMFKCVWRCYRLIKCMNSVEEKRNSKMLQKVVLPSYEEALSLPSKTPEGGPAPPPYSEV
- binding [7]: binds

B3: V5-tagged LAPTM5 (in M10 cells) (protein, UniProt Q13571 1-262)
chain: MDPRLSTVRQTCCCFNVRIATTALAIYHVIMSVLLFIEHSVEVAHGKASCKLSQMGYLRIADLISSFLLITMLFIISLSLLIGVVKNREKYLLPFLSLQIMDYLLCLLTLLGSYIELPAYLKLASRSRASSSKFPLMTLQLLDFCLSILTLCSSYMEVPTYLNFKSMNHMNYLPSQEDMPHNQFIKMMIIFSIAFITVLIFKVYMFKCVWRCYRLIKCMNSVEEKRNSKMLQKVVLPSYEEALSLPSKTPEGGPAPPPYSEV
- binding [8]: no binding (condition: cells not treated with bafilomycin)
- binding [9]: binds
- binding [5]: binds

B4: lysosomal-associated transmembrane protein 5 (LAPTM5), endogenous in M10 cells (protein, UniProt Q13571 1-262)
chain: MDPRLSTVRQTCCCFNVRIATTALAIYHVIMSVLLFIEHSVEVAHGKASCKLSQMGYLRIADLISSFLLITMLFIISLSLLIGVVKNREKYLLPFLSLQIMDYLLCLLTLLGSYIELPAYLKLASRSRASSSKFPLMTLQLLDFCLSILTLCSSYMEVPTYLNFKSMNHMNYLPSQEDMPHNQFIKMMIIFSIAFITVLIFKVYMFKCVWRCYRLIKCMNSVEEKRNSKMLQKVVLPSYEEALSLPSKTPEGGPAPPPYSEV
- binding [9]: binds
